# Laboratory results published in the supplement of paper PMC9454738.
# Structures can show the parent of a compound that is named as a salt. ± gives the standard deviation of the averaged measurements. Some of the results follow. This data set is noisy: repeats of one test often differ as much as different tests do.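 Assays used MDA-MB-231 triple-negative breast cancer cells and their brain-metastatic line MDA-MB-231BRM, stably carrying empty vector, full-length GLI1 or truncated tGLI1. After 48 h, viability was read with CellTiter-Blue and normalized to 1% DMSO vehicle. tGLI1 selectivity meant viability fell 20% more in tGLI1 cells than in vector and GLI1 cells.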
# Columns and labels:
# Test in all cases: cell viability relative to vehicle (DMSO) control (fraction); higher = more viable cells (less growth inhibition)
# Conditions in all cases: treatment time 48 h
# MDA-MB-231 GLI1 = system: MDA-MB-231 GLI1
# MDA-MB-231 Vector = system: MDA-MB-231 Vector
# MDA-MB-231 tGLI1 = system: MDA-MB-231 tGLI1
# MDA-MB-231BRM GLI1 = system: MDA-MB-231BRM GLI1
# MDA-MB-231BRM Vector = system: MDA-MB-231BRM Vector
# MDA-MB-231BRM tGLI1 = system: MDA-MB-231BRM tGLI1
Structure (SMILES),cell viability (MDA-MB-231 GLI1; 0.05 µM),cell viability (MDA-MB-231 GLI1; 0.5 µM),cell viability (MDA-MB-231 GLI1; 5 µM),cell viability (MDA-MB-231 Vector; 0.05 µM),cell viability (MDA-MB-231 Vector; 0.5 µM),cell viability (MDA-MB-231 Vector; 5 µM),cell viability (MDA-MB-231 tGLI1; 0.05 µM),cell viability (MDA-MB-231 tGLI1; 0.5 µM),cell viability (MDA-MB-231 tGLI1; 5 µM),cell viability (MDA-MB-231BRM GLI1; 0.05 µM),cell viability (MDA-MB-231BRM GLI1; 0.5 µM),cell viability (MDA-MB-231BRM GLI1; 5 µM),cell viability (MDA-MB-231BRM Vector; 0.05 µM),cell viability (MDA-MB-231BRM Vector; 0.5 µM),cell viability (MDA-MB-231BRM Vector; 5 µM),cell viability (MDA-MB-231BRM tGLI1; 0.05 µM),cell viability (MDA-MB-231BRM tGLI1; 0.5 µM),cell viability (MDA-MB-231BRM tGLI1; 5 µM)
Cc1cc2c(F)c(Oc3ncnn4cc(OC[C@@H](C)O)c(C)c34)ccc2[nH]1,1.52,1.81,0.97,1.43,1.27,0.685,1.22,1.54,0.709,0.926,0.933,0.982,0.939,0.925,0.964,0.947,0.964,0.991
O=C(Nc1cccc(Cl)c1)Nc1ncc(CCNc2ncnc3ccsc23)s1 [SNS-314 Mesylate],1.09,1.21,1.01,1.09,1,0.752,0.972,1.14,0.681,0.969,0.969,0.735,0.91,0.898,0.771,0.923,0.957,0.655
CC(C)CCN1c2nc(Nc3cc(F)c(O)c(F)c3)ncc2N(C)C(=O)C1C (stereo not given),1.18,0.95,0.301,1.22,1.01,0.575,1.21,1.02,0.394,0.992,0.838,0.771,0.971,0.945,0.869,1.01,0.959,0.786
CO[C@H]1C[C@@H]2CC[C@@H](C)[C@@](O)(O2)C(=O)C(=O)N2CCCC[C@H]2C(=O)O[C@H]([C@H](C)C[C@@H]2CC[C@H](n3cnnn3)[C@H](OC)C2)CC(=O)[C@H](C)/C=C(\C)[C@@H](O)[C@@H](OC)C(=O)[C@H](C)C[C@H](C)/C=C/C=C/C=C/1C [Zotarolimus(ABT-578)],0.853,1.04,0.625,0.836,0.974,0.95,0.886,0.938,0.694,1.05,0.901,0.759,1.06,0.946,0.754,0.978,0.883,0.69
O=C1NC(=O)/C(=C/c2ccc(-c3ccc(F)cc3O)o2)S1,1.25,1.44,0.816,1.24,1.36,0.591,1.37,1.3,1.15,0.988,1.07,1.13,1.04,1.15,1.16,1.06,1.1,1.11
Nc1nc(Cl)nc2c1ncn2[C@H]1C[C@H](O)[C@@H](CO)O1 [Cladribine],0.725,0.528,0.334,0.868,0.542,0.273,0.851,0.599,0.215,0.991,0.916,0.706,0.988,0.881,0.752,0.983,0.967,0.816
Oc1cccc(-c2nc(N3CCOCC3)c3oc4ncccc4c3n2)c1,1.17,0.813,0.451,1.07,0.646,0.379,0.916,0.729,0.344,0.884,0.844,0.68,0.818,0.943,0.777,0.838,0.732,0.644
CC(C)(O)CC(=O)NCCn1ccc2ncnc(Nc3ccc(Oc4cccc(C(F)(F)F)c4)c(Cl)c3)c21,1.18,1.19,0.955,1.23,1.16,0.757,1.4,1.14,0.968,0.948,0.987,0.656,1.05,0.948,0.578,1.04,0.972,0.602
CCc1ccc(/C=C2/SC(=S)NC2=O)cc1,1.13,1.82,1.08,1.1,1.24,1.3,0.903,1.26,1.17,0.958,0.999,1.01,1.06,1.05,1.07,1.04,0.973,1
Cc1nc(N)sc1-c1ccnc(Nc2ccc(N3CCOCC3)cc2)n1,1.42,1.37,0.721,0.772,1.06,0.537,1.39,1.08,0.689,1,0.901,0.954,0.991,0.916,0.965,1.02,0.934,0.865
CC(C)C[C@H](NC(=O)[C@H](Cc1ccccc1)NC(=O)c1cnccn1)B(O)O [Bortezomib (Velcade)],-0.313,-0.333,-0.361,-0.576,-0.662,-0.659,-0.407,-0.451,-0.46,1.08,0.812,0.787,1.04,0.815,0.736,1.07,0.797,0.729
O=S(=O)(NCCNC/C=C/c1ccc(Br)cc1)c1cccc2cnccc12,1.44,1.46,1.82,1.88,1.35,1.46,1.19,0.677,1.43,1.08,1.15,0.939,0.738,1.01,0.974,0.986,1.11,0.946
CCn1c(=O)c(-c2ccc(-c3cncs3)cc2Cl)cc2cnc(Nc3ccc(N4CCN(C)CC4)cc3)nc21,1.25,1.01,0.692,0.896,0.899,0.576,1.14,0.733,0.158,0.901,0.873,1.01,1.06,0.975,1.19,1.01,0.918,1.22
CNC(=O)c1cc(Oc2ccc(NC(=O)Nc3ccc(Cl)c(C(F)(F)F)c3)c(F)c2)ccn1 [Regorafenib (BAY 73-4506)],1.15 ± 0.16,0.926 ± 0.17,0.595 ± 0.02,1.19 ± 0.14,0.859 ± 0.18,0.422 ± 0.0043,0.987 ± 0.18,0.887 ± 0.11,0.44 ± 0.073,1.03 ± 0.045,1.03 ± 0.037,0.714 ± 0.032,0.968 ± 0.047,0.985 ± 0.019,0.849 ± 0.019,1.016 ± 0.0059,0.988 ± 0.075,0.803 ± 0.037
COc1ccccc1-c1cc(Nc2cccc(CS(N)(=O)=O)c2)ncn1,2.29,3.16,1.03,1.37,1.26,0.66,1.33,1.58,0.792,0.837,0.753,0.669,0.931,0.871,0.764,1.23,1.11,1.06
FC(F)c1nc2ccccc2n1-c1nc(N2CCOCC2)nc(N2CCOCC2)n1,1.2,1.28,0.402,1.37,0.79,0.337,1.07,1.02,0.246,0.877,0.75,0.671,0.824,0.795,0.703,0.88,0.794,0.583
CCOc1ccn(-c2ccc(F)cc2)c(=O)c1C(=O)Nc1ccc(Oc2ccnc(N)c2Cl)c(F)c1,1.39,1.63,1.15,1.93,1.18,0.866,1.2,1.26,0.869,1.11,1.18,0.893,0.923,1.02,0.924,0.988,1.15,0.822
C[C@@]1(C(=O)Nc2ccc(F)nc2)CCCN1c1nc(Nc2cc(C3CC3)n[nH]2)c2cccn2n1,1.47,1.65,0.887,1.45,1.15,0.803,1.27,1.32,0.706,0.978,0.982,1.05,0.961,0.949,1.01,0.975,0.964,0.885
O=C(Nc1ccc(OC(F)(F)F)cc1)c1sccc1NCc1ccnc2ccccc12,1.22,1.28,0.79,1.79,0.924,0.628,1.14,1.21,0.39,1.13,1.07,0.939,0.579,0.962,0.943,0.936,1.08,0.818
CCOC(=O)[C@H](CCc1ccccc1)N[C@H]1CCc2ccccc2N(CC(=O)O)C1=O [Benazepril hydrochloride],1.16,1.14,1.02,1.37,1.09,1.1,1.07,1.14,1.26,1.08,1.04,1.01,1.06,1,0.996,1.07,1.02,1.06

# Quoted from the entries so far (4 entries):
Structure (SMILES),cell viability (MDA-MB-231 GLI1; 0.05 µM),cell viability (MDA-MB-231 GLI1; 0.5 µM),cell viability (MDA-MB-231 GLI1; 5 µM),cell viability (MDA-MB-231 Vector; 0.05 µM),cell viability (MDA-MB-231 Vector; 0.5 µM),cell viability (MDA-MB-231 Vector; 5 µM),cell viability (MDA-MB-231 tGLI1; 0.05 µM),cell viability (MDA-MB-231 tGLI1; 0.5 µM),cell viability (MDA-MB-231 tGLI1; 5 µM),cell viability (MDA-MB-231BRM GLI1; 0.05 µM),cell viability (MDA-MB-231BRM GLI1; 0.5 µM),cell viability (MDA-MB-231BRM GLI1; 5 µM),cell viability (MDA-MB-231BRM Vector; 0.05 µM),cell viability (MDA-MB-231BRM Vector; 0.5 µM),cell viability (MDA-MB-231BRM Vector; 5 µM),cell viability (MDA-MB-231BRM tGLI1; 0.05 µM),cell viability (MDA-MB-231BRM tGLI1; 0.5 µM),cell viability (MDA-MB-231BRM tGLI1; 5 µM)
CCOc1ccn(-c2ccc(F)cc2)c(=O)c1C(=O)Nc1ccc(Oc2ccnc(N)c2Cl)c(F)c1,1.39,1.63,1.15,1.93,1.18,0.866,1.2,1.26,0.869,1.11,1.18,0.893,0.923,1.02,0.924,0.988,1.15,0.822
C[C@@]1(C(=O)Nc2ccc(F)nc2)CCCN1c1nc(Nc2cc(C3CC3)n[nH]2)c2cccn2n1,1.47,1.65,0.887,1.45,1.15,0.803,1.27,1.32,0.706,0.978,0.982,1.05,0.961,0.949,1.01,0.975,0.964,0.885
O=C(Nc1ccc(OC(F)(F)F)cc1)c1sccc1NCc1ccnc2ccccc12,1.22,1.28,0.79,1.79,0.924,0.628,1.14,1.21,0.39,1.13,1.07,0.939,0.579,0.962,0.943,0.936,1.08,0.818
CCOC(=O)[C@H](CCc1ccccc1)N[C@H]1CCc2ccccc2N(CC(=O)O)C1=O [Benazepril hydrochloride],1.16,1.14,1.02,1.37,1.09,1.1,1.07,1.14,1.26,1.08,1.04,1.01,1.06,1,0.996,1.07,1.02,1.06
